Test [1] addresses sol VEGFR2. Put plainly: SPR. (Surface plasmon resonance follows binding to a sensor surface in real time, without labels.)
For test [2], the target named is sol VEGFR2. Put plainly: SPR (Example 4).

Results are given in words; binding and its absence hold for the method and conditions named. Binding calls can cover weak binding; strength is not graded here. Where a sequence is shown, tags or fusion partners need not be part of it.

B1: ABD-(GS)3-C7FL-His6 (anti-VEGFR2 adnectin linked to ABD at its N-terminus) (designed binder)
chain: MGQHDEAVDANSLAEAKVLANRELDKYGVSDYYKNLINNAKTVEGVKALIDEILAALPGSGSGSVSDVPRDLEVVAATPTSLLISWRHPHFPTRYYRITYGETGGNSPVQEFTVPLQPPTATISGLKPGVDYTITVYAVTDGRNGRLLSIPISINYRTGSGSHHHHHH
As for B1, the binding entry with sol VEGFR2 [1] and with sol VEGFR2 [2] was “binds” each time.

(Values after patent US20160152686A1.)
